Measured values: patent US20100040606A1
No constants are given. Whether binding was seen depends on the method and setting. Binding can be weak; no strength is given.

B1: antibody from clone 811 (antibody, V domains shown)
VH: QVQLVQSGAVVETPGASVKVSCKASGYIFGNYYIHWVRQAPGQGLEWMAVINPNGGSTTSAQKFQDRITVTRDTSTTTVYLEVDNLRSEDTATYYCARQRSVTGGFDAWLLIPDASNTWGQGTMVTVSS
VL: DIVMTQSPDSLAVSLGERATINCRSSETVLYTSKNQSYLAWYQQKARQPPKLLLYWASTRESGVPARFSGSGSGTDFTLAISSLQAEDVAVYYCQQFFRSPFTFGPGTRLEIKR
B2: antibody from clone 814 (antibody, V domains shown)
VH: QVQLVESGGGVVQPGKSVRLSCVGSGFRLMDYAMHWVRQAPGKGLDWVAVISYDGANEYYAESVKGRFTVSRDNSDNTLYLQMKSLRAEDTAVYFCARAGRSSMNEEVIMYFDNWGLGTLVTVSS
VL: DIQMTQSPSTLSASVGDRVTITCRASQSIGSRLAWYQQQPGKAPKFLIYDASSLESGVPSRFSGSGSGTEFTLTISSLQPEDLATYYCQQYNRDSPWTFGQGTKVEIKR
B3: antibody from clone 816 (antibody, human IgG1, kappa, V domains shown)
VH: EVQLLESGGGLVQPGGSLRLSCVASGFTFSTYAMTWVRQAPGKGLEWVSVIRASGDSEIYADSVRGRFTISRDNSKNTVFLQMDSLRVEDTAVYFCANIGQRRYCSGDHCYGHFDYWGQGTLVTVSS
VL: DIVMTQSPLSLPVTPGEPASISCRSSQSLLHSDGRYYVDWYLQKPGQSPHLLIYLASNRASGVPDRFTGSGSGTDFTLKISRVEAEDVGVYYCMQGLHTPWTFGQGTKVDIKR
B4: antibody from clone 830 (antibody, V domains shown)
VH: QVQLVQSGAEVKVPGASVKVSCKASGYTFTTYGVSWVRQAPGQGLEWMGWISAYNGNTYYLQKLQGRVTMTTDTSTSTAYMELRGLRSDDTAMYYCARDRVGGSSSEVLSRAKNYGLDVWGQGTTVTVSS
VL: DIQMTQSPSTLSASVGDRVTITCRASQSVTSELAWYQQKPGKAPNFLIYKASSLESGVPSRFSGSGSGTEFTLTISSLQPDDFATYYCQQYNSFPYTFGQGTKLEIKR
B5: antibody from clone 835 (antibody, human IgG1, kappa, V domains shown)
VH: QVQLVQSGAEVKRPGASVKVSCKASGYTFISYGFSWVRQAPGQGLEWMGWSSVYNGDTNYAQKFHGRVNMTTDTSTNTAYMELRGLRSDDTAVYFCARDRNVVLLPAAPFGGMDVWGQGTMVTVSS
VL: DIQLTQSPSFLSASLEDRVTITCRASQGISSYLAWYQQKPGKAPKLLLDAASTLQSGVPSRFSGSGSGTEFTLTISSLQPEDFATYYCQQLNSYPRTFGQGTKVDIKR
B6: antibody from clone 853 (antibody, human IgG1, kappa, V domains shown)
VH: EVQLVQSGAEVKKPGQSLKISCKTSGYIFTNYWIGWVRQRPGKGLEWMGVIFPADSDARYSPSFQGQVTISADKSIGTAYLQWSSLKASDTAIYYCARPKYYFDSSGQFSEMYYFDFWGQGTLVTVSS
VL: EIVLTQSPGTLSLSPGERATLSCRASQSVSSNYLAWYQQKPGQAPRLLIYGASSRAAGMPDRFSGSGSGTDFTLTISRLEPEDFAVYYCQQYGNSPLTFGGGTEVEIKR
B7: antibody from clone 855 (antibody, human IgG1, kappa, V domains shown)
VH: QVQLVQSGPEVKKPGASVKVSCKASGYVLTNYAFSWVRQAPGQGLEWLGWISGSNGNTYYAEKFQGRVTMTTDTSTSTAYMELRSLRSDDTAVYFCARDLLRSTYFDYWGQGTLVTVSS
VL: DIQMTQSPSSVSASVGDRVTITCRASQAISNWLAWYQQKPGKAPKLLIYAASSLQSGVPSRFSGSGSGTDFTLTISGLQPEDFATYYCQQADTFPFTFGPGTKVDIKR
B8: antibody from clone 859 (antibody, V domains shown)
VH: QVQLVESGGGVVQPGRSLRLSCAVSGSSFSKYGIHWVRQAPGKGLEWVAVISYDGSKKYFTDSVKGRFTIARDNSQNTVFLQMNSLRAEDTAVYYCATGGGVNVTSWSDVEHSSSLGYWGLGTLVTVSS
VL: DIQMTQSPSSLSASVGDRVTITCRASQGIRNYLAWYQQKPGKVPKLLVFAASTLQSGVPSRFSGSGSGTDFTLTISSLQPEDVATYYCQRYNSAPLTFGGGTKVEIKR

What follows are binders tested against RSV G protein (receptor-binding glycoprotein) (human respiratory syncytial virus, strain not stated per clone) (assay: ELISA, FLISA and/or Biacore).
B1 was tested, and the binding was “binds”.
In the case of B2, the binding is reported as “binds”.
In the case of B3, the binding is reported as “binds”.
For B4, the binding was “binds”.
B5 was tested, and the binding was “binds”.
B6 was tested, and the binding was “binds”.
For B7, the binding was “binds”.
For B8, the binding was “binds”.
